In the supplement of paper PMC10849652:
The other results are listed elsewhere or left out. Residues, ends and D or L forms follow the SMILES beside them. *: point of attachment. Cbz = O=C(OCc1ccccc1)*

Chains of the proteins cited; added tags and fusions are not shown. Lines headed by an entry give the natural chain unless they say otherwise; changes in a name come on top.
UniProt Q7Z4H7: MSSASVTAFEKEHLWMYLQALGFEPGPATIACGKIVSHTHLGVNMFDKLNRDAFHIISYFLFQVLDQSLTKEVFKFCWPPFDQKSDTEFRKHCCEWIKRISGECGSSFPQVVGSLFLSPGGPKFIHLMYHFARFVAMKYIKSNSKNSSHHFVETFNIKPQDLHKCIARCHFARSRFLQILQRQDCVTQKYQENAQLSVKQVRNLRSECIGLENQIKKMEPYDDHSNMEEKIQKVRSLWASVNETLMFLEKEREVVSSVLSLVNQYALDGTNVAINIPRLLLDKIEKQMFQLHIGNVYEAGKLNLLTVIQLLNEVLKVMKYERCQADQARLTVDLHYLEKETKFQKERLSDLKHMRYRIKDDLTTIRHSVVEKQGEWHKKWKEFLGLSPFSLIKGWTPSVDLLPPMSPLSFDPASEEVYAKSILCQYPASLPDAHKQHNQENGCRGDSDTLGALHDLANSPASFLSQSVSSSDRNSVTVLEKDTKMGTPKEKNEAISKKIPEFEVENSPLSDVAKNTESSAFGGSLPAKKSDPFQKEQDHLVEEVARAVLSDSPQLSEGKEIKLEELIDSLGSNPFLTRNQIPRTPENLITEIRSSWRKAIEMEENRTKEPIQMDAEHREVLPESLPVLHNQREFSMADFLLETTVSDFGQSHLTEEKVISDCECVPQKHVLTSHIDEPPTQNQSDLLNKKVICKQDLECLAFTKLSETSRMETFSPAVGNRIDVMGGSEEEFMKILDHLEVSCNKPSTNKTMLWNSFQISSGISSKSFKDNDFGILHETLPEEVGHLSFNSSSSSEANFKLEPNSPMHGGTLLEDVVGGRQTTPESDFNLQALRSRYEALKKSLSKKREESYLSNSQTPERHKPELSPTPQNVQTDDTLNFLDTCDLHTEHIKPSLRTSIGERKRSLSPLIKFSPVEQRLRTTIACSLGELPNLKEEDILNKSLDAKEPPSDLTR
UniProt Q96CS2: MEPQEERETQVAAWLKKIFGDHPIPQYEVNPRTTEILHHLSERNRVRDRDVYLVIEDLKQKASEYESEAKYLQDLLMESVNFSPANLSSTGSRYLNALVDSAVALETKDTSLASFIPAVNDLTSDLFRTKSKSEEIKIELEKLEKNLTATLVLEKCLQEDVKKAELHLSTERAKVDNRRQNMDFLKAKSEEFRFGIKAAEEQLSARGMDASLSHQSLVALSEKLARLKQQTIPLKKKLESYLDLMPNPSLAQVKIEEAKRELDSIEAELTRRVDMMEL
UniProt P16403, whole entry, looked up: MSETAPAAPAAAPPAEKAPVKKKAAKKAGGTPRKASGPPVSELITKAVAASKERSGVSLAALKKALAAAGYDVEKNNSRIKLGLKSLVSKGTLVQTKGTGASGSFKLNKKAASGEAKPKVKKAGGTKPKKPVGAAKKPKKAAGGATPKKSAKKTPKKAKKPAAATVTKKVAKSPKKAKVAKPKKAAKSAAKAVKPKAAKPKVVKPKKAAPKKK
UniProt Q9Y3E1: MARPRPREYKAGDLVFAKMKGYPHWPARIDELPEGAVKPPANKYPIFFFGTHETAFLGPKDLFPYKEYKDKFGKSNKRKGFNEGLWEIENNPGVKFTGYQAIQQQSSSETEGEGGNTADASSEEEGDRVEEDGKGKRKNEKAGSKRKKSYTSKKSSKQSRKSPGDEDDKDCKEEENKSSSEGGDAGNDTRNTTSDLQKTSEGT
UniProt P14317: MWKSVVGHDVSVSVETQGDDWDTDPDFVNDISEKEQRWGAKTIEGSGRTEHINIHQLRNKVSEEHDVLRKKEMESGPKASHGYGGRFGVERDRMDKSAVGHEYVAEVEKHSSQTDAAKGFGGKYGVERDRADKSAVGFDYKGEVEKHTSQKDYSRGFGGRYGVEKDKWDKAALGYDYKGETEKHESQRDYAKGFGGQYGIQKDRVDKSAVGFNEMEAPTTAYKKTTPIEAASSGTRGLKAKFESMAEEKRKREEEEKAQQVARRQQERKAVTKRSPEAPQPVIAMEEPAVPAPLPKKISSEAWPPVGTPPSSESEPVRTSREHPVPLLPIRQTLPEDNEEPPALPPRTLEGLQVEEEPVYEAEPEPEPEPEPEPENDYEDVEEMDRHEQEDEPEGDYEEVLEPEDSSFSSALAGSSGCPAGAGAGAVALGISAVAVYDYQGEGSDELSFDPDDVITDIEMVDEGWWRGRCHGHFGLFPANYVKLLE
UniProt Q6PII5: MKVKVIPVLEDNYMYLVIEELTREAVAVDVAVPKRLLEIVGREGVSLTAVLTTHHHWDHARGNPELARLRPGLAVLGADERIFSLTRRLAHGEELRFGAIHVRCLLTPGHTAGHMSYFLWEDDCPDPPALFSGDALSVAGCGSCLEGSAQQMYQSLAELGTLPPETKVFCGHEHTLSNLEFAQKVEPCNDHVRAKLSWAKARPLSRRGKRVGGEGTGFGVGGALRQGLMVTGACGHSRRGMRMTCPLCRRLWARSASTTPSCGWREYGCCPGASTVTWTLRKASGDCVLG
UniProt Q5GLZ8: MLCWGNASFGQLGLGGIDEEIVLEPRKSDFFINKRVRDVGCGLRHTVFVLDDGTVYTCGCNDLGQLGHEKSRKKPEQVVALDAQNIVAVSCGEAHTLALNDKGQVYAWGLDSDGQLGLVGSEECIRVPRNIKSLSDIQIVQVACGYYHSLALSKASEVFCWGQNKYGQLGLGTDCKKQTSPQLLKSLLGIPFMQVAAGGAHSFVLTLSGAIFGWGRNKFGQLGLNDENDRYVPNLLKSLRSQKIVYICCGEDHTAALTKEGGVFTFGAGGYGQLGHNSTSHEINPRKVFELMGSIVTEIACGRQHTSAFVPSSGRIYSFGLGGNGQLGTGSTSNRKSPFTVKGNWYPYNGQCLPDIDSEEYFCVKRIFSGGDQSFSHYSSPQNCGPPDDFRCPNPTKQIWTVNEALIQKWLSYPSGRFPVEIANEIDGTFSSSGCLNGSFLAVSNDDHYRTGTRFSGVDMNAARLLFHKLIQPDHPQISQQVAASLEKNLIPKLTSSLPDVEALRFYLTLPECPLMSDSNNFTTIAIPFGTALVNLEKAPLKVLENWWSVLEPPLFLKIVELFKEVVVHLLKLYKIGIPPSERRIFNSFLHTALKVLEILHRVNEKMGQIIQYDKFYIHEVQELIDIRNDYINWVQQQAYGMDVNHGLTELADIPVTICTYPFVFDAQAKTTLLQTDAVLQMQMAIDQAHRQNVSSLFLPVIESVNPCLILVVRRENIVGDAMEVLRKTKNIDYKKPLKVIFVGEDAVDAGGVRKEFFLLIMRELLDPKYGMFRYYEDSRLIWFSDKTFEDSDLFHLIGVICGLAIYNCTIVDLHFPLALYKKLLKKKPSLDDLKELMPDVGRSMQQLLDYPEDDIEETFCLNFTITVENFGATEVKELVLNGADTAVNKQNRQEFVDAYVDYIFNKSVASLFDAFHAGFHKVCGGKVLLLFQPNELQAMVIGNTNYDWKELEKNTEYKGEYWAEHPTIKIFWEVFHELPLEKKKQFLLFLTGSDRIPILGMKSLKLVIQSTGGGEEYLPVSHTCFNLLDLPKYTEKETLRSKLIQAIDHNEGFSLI
UniProt Q8NEC7: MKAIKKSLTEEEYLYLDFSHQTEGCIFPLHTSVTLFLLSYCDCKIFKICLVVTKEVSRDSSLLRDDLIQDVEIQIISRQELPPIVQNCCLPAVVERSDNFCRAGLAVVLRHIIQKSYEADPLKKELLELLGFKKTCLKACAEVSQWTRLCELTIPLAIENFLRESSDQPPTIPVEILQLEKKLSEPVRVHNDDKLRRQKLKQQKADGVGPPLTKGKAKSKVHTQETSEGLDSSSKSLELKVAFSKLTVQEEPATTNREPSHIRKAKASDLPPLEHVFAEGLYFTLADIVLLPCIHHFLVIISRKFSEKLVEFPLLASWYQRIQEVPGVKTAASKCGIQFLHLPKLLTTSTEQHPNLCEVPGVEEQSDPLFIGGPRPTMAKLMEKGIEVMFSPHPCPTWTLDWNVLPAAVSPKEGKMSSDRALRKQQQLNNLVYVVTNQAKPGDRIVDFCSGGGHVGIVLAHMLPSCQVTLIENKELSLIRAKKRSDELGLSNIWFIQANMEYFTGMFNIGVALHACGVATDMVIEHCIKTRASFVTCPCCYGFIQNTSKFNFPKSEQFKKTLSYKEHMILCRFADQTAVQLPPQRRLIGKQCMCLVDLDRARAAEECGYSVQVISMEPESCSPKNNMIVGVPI
UniProt P04921: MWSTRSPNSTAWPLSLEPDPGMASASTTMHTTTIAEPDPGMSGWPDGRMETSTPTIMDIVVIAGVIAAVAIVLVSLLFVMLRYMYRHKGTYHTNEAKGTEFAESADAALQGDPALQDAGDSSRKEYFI
UniProt P69892: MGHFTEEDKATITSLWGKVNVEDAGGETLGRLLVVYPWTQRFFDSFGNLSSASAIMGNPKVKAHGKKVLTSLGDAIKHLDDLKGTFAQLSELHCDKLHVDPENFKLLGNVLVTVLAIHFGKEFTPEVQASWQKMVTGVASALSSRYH
UniProt Q13888: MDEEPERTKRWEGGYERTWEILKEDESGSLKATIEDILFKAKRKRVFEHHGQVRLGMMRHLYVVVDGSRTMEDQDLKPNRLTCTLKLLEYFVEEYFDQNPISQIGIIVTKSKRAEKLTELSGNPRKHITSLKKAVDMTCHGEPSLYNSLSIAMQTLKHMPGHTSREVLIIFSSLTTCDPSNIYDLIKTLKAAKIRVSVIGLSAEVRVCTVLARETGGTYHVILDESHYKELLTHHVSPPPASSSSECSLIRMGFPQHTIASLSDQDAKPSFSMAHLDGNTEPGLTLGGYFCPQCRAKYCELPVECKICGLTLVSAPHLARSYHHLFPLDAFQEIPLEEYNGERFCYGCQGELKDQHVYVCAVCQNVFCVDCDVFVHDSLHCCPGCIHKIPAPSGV
UniProt Q4G148: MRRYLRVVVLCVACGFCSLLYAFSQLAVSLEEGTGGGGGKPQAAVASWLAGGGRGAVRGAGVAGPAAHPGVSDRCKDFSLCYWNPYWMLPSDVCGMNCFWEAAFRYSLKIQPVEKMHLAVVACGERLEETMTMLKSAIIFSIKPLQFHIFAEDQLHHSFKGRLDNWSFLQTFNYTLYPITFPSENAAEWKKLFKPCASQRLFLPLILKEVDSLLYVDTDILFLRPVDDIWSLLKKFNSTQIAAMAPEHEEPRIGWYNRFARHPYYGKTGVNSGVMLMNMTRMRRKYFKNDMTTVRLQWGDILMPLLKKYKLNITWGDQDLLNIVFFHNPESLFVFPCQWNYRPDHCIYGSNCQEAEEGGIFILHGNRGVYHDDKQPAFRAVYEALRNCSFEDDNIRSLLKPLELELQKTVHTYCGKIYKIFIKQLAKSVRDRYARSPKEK
UniProt P13984, whole entry, looked up: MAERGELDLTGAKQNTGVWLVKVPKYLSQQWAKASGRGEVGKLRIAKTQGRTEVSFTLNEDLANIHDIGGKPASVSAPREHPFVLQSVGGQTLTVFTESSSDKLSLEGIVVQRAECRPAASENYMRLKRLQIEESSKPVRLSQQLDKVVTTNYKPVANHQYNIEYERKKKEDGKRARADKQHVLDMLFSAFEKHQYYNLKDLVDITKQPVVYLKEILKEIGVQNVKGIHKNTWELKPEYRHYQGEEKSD
UniProt Q8NG08: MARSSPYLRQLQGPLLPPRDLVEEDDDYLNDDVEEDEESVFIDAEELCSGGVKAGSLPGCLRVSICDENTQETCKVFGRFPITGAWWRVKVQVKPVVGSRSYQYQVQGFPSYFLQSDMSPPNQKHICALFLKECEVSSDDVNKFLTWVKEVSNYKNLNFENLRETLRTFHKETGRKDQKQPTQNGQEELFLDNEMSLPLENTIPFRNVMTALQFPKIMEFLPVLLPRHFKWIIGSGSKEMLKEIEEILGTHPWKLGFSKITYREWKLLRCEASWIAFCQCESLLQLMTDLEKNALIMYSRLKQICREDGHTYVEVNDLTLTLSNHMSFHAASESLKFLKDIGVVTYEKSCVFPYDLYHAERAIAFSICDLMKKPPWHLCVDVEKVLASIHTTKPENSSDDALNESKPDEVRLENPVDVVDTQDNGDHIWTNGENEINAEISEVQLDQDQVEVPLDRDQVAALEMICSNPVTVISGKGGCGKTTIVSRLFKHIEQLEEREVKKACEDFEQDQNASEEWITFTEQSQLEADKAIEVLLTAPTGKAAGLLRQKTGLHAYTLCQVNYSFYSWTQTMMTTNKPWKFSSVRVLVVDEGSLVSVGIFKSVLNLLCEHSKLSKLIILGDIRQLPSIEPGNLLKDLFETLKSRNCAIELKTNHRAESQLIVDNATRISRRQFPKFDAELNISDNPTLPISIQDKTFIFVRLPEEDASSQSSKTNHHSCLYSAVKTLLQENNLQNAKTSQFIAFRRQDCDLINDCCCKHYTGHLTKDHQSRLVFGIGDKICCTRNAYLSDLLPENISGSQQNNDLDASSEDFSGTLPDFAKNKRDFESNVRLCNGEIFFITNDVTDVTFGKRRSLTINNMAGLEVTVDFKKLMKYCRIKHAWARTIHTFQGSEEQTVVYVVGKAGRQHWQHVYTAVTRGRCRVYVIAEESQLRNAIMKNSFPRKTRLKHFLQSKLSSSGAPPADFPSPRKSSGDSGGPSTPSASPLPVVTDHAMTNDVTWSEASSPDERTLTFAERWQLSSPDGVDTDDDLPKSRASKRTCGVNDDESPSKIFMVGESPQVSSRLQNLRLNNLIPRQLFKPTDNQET

Legend:
Test in all cases: log2 fold change, soluble protein after heating vs DMSO (PISA); higher = thermal stabilisation; K562 cells, 10 uM, 30 min; active = over 0.2 and 3.5 SD of the protein, either way, in both replicates (recomputed)
[1] = compound: C1COCCN1CCN2C3=CC=CC=C3N=C2NC(=O)C4=CC(=CC=C4)[N+](=O)[O-] [IRAK-1-4 Inhibitor I]
In short: (§1)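 K562 cells at 2×10^6 cells/mL were exposed to 10 μM compound for 30 min, then aliquots were heated for 3 min across 48°C-58°C, pooled, and extracted in PBS containing 0.5% NP-40 at 4°C. The supernatant after 21,000xg for 90 min was taken as soluble protein and measured by TMTpro 16plex LC-MS/MS with channel sums equalised. Thermal stability is reported relative to control samples, with values from duplicates. Fold changes are given on a log2 scale.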

[2] = compound: C=CC(=O)N1CCC[C@@H](n2nc(-c3ccc(Oc4ccccc4)cc3)c3c(N)ncnc32)C1 [ibrutinib]
In short: as §1

[3] = compound: CC(=O)c1cnc2ccc(-c3cc(Cl)c(O)c(Cl)c3)nc2c1N[C@H]1CC[C@H](CN(C)C)CC1
In short: as §1

[4] = compound: CC(C)(C)Cn1c(N)nc2ccc(-c3[nH]c(C(C)(C)C)nc3-c3ccc(F)cc3)nc21 [ralimetinib]
In short: as §1

[5] = compound: CC(C)(O)CC(=O)NCCn1ccc2ncnc(Nc3ccc(Oc4cccc(C(F)(F)F)c4)c(Cl)c3)c21
In short: as §1

[6] = compound: CC(C)C1=C2N=C(C=C(N2N=C1)NCC3=CC=CC=C3)NCCCCCCN
In short: as §1

[7] = compound: CC(C)C[C@@H](C=O)NC(=O)[C@H](CC(C)C)NC(=O)[C@H](CC(C)C)NC(=O)OCc1ccccc1
In short: as §1

[8] = compound: CC(C)N(C[C@H]1O[C@@H](n2cnc3c(N)ncnc32)[C@H](O)[C@@H]1O)[C@H]1C[C@@H](CCc2nc3cc(C(C)(C)C)ccc3[nH]2)C1 [pinometostat]
In short: as §1

[9] = compound: CC1=C(C(CC(=O)N1)C2=CC=C(C=C2)C(F)(F)F)C(=O)NC3=C(C=C4C(=C3)C=NN4)F
In short: as §1

[10] = compound: CC1=C(C2=C(C=C1)C(=O)C3=CC=CC=C3N2CCCN)C
In short: as §1

Measured: log2 fold change

HBS1L (UniProt Q9Y450)
inactive: [1] -0.013 | [2] -0.004 | [3] -0.042 | [4] -0.016 | [5] -0.018 | [6] -0.027 | [7] -0.002 | [8] 0 | [9] -0.027 | [10] 0.109

HACL1 (UniProt Q9UJ83)
inactive: [1] 0.021 | [2] -0.01 | [3] -0.01 | [4] -0.002 | [5] -0.094 | [6] 0.054 | [7] -0.081 | [8] -0.019 | [9] 0.003 | [10] 0

HAUS6 (UniProt Q7Z4H7)
inactive: [1] -0.118 | [2] 0.047 | [3] 0 | [4] 0.116 | [5] 0.029 | [6] -0.119 | [7] 0.117 | [8] 0.283 | [9] 0.013 | [10] 0.133

HEXIM1 (UniProt O94992)
inactive: [1] 0.012 | [2] -0.007 | [3] 0.009 | [4] -0.036 | [5] 0.014 | [6] 0.138 | [7] 0.017 | [8] -0.021 | [9] -0.004 | [10] 0.081

HAUS1 (UniProt Q96CS2)
inactive: [1] 0.012 | [2] -0.042 | [3] 0.062 | [4] 0.052 | [5] 0 | [6] -0.094 | [7] 0.12 | [8] 0.051 | [9] 0.131 | [10] -0.089

H1-2 (UniProt P16403)
inactive: [1] -0.132 | [2] 0.027 | [3] 0.051 | [4] 0.138 | [5] 0.161 | [6] -0.003 | [7] 0.073 | [8] 0.41 | [9] 0.022 | [10] 0.623

HDGFL3 (UniProt Q9Y3E1)
inactive: [1] 0.02 | [2] 0.018 | [3] -0.017 | [4] -0.052 | [5] 0.034 | [6] 0.094 | [7] 0.009 | [8] -0.018 | [9] 0.044 | [10] 0.089

GSPT2 (UniProt Q8IYD1)
inactive: [1] -0.018 | [2] 0.032 | [3] -0.077 | [4] 0.052 | [5] 0.081 | [6] -0.006 | [7] 0.012 | [8] 0.035 | [9] -0.012

HDHD5 (UniProt Q9BXW7)
inactive: [1] 0.012 | [2] 0.025 | [3] -0.03 | [4] -0.016 | [5] 0 | [6] -0.026 | [7] -0.002 | [8] 0.028 | [9] 0.025 | [10] 0.08

HCLS1 (UniProt P14317)
inactive: [1] 0.059 | [2] 0.013 | [3] -0.012 | [4] -0.067 | [5] -0.029 | [6] 0.005 | [7] 0.003 | [8] -0.025 | [9] 0.011 | [10] -0.027

HAGHL isoform 2 (UniProt Q6PII5)
inactive: [1] -0.018 | [2] 0.09 | [3] -0.135 | [4] 0.209 | [5] -0.099 | [6] 0.037 | [7] -0.036 | [8] 0 | [9] -0.031

HERC4 (UniProt Q5GLZ8)
inactive: [1] 0.029 | [2] 0.018 | [3] -0.055 | [4] 0.003 | [5] -0.043 | [6] -0.042 | [7] -0.02 | [8] -0.008 | [9] -0.009 | [10] 0.003

GSTCD (UniProt Q8NEC7)
inactive: [1] -0.071 | [2] 0.044 | [3] 0.052 | [4] 0.048 | [5] -0.152 | [6] -0.191 | [7] 0.09 | [8] 0.096 | [9] -0.055 | [10] 0.183

GYPC (UniProt P04921)
inactive: [1] 0.03 | [2] 0.013 | [3] 0.081 | [4] 0.117 | [5] -0.031 | [6] 0.004 | [7] 0.012 | [8] -0.053 | [9] -0.013 | [10] -0.265

HDLBP (UniProt Q00341)
inactive: [1] -0.234 | [2] -0.054 | [3] 0.05 | [4] 0.219 | [5] 0.023 | [6] -0.238 | [7] 0.155 | [8] 0.361 | [9] 0.036 | [10] -0.054

HBG2 (UniProt P69892)
inactive: [1] 0.012 | [2] 0.021 | [3] 0.024 | [4] 0.008 | [5] -0.087 | [6] 0.065 | [7] -0.094 | [8] -0.094 | [9] -0.002 | [10] 0.134

HELQ (UniProt Q8TDG4)
inactive: [1] -0.009 | [2] -0.075 | [3] 0.042 | [4] -0.037 | [5] 0.02 | [6] 0.088 | [7] 0.049 | [8] -0.019 | [9] -0.198 | [10] -0.013

GTF2H2 (UniProt Q13888)
inactive: [1] 0.034 | [2] -0.028 | [3] -0.031 | [4] 0.011 | [5] -0.009 | [6] 0.022 | [7] 0.095 | [8] 0.034 | [9] 0.037 | [10] 0.056

HAGH (UniProt Q16775)
inactive: [1] 0.04 | [2] 0.013 | [3] -0.037 | [4] -0.025 | [5] -0.017 | [6] 0.066 | [7] 0.015 | [8] 0.014 | [9] 0.021 | [10] -0.011

GXYLT1 (UniProt Q4G148)
inactive: [1] -0.021 | [2] -0.204 | [3] -0.044 | [4] -0.009 | [5] -0.092 | [6] 0.03 | [7] -0.106 | [8] -0.14 | [9] -0.138 | [10] 0.126

GTF2F2 (UniProt P13984)
inactive: [1] 0.064 | [2] -0.013 | [3] -0.035 | [4] -0.108 | [5] -0.058 | [6] -0.01 | [7] 0.003 | [8] -0.004 | [9] -0.017 | [10] 0.08

Seven neighbouring records out of the list so far, quoted:
GYPC (UniProt P04921)
inactive: [1] 0.03 | [2] 0.013 | [3] 0.081 | [4] 0.117 | [5] -0.031 | [6] 0.004 | [7] 0.012 | [8] -0.053 | [9] -0.013 | [10] -0.265

HDLBP (UniProt Q00341)
inactive: [1] -0.234 | [2] -0.054 | [3] 0.05 | [4] 0.219 | [5] 0.023 | [6] -0.238 | [7] 0.155 | [8] 0.361 | [9] 0.036 | [10] -0.054

HBG2 (UniProt P69892)
inactive: [1] 0.012 | [2] 0.021 | [3] 0.024 | [4] 0.008 | [5] -0.087 | [6] 0.065 | [7] -0.094 | [8] -0.094 | [9] -0.002 | [10] 0.134

HELQ (UniProt Q8TDG4)
inactive: [1] -0.009 | [2] -0.075 | [3] 0.042 | [4] -0.037 | [5] 0.02 | [6] 0.088 | [7] 0.049 | [8] -0.019 | [9] -0.198 | [10] -0.013

GTF2H2 (UniProt Q13888)
inactive: [1] 0.034 | [2] -0.028 | [3] -0.031 | [4] 0.011 | [5] -0.009 | [6] 0.022 | [7] 0.095 | [8] 0.034 | [9] 0.037 | [10] 0.056

HAGH (UniProt Q16775)
inactive: [1] 0.04 | [2] 0.013 | [3] -0.037 | [4] -0.025 | [5] -0.017 | [6] 0.066 | [7] 0.015 | [8] 0.014 | [9] 0.021 | [10] -0.011

GXYLT1 (UniProt Q4G148)
inactive: [1] -0.021 | [2] -0.204 | [3] -0.044 | [4] -0.009 | [5] -0.092 | [6] 0.03 | [7] -0.106 | [8] -0.14 | [9] -0.138 | [10] 0.126

Remaining list, next part

HDHD3 (UniProt Q9BSH5)
inactive: [1] 0.013 | [2] 0.013 | [3] -0.13 | [4] -0.05 | [5] -0.047 | [6] -0.019 | [7] 0.018 | [8] -0.038 | [9] -0.021 | [10] 0.071

HELB (UniProt Q8NG08)
inactive: [1] 0.034 | [2] 0.039 | [3] -0.091 | [4] -0.021 | [5] -0.075 | [6] 0.058 | [7] -0.018 | [8] 0.016 | [9] -0.031 | [10] 0.127

HDAC3 isoform 2 (UniProt O15379)
inactive: [1] -0.018 | [2] 0.035 | [3] -0.231 | [4] 0.035 | [5] -0.047 | [6] 0.038 | [7] -0.062 | [8] -0.006 | [9] -0.02 | [10] 0.026

HCFC1 isoform 4 (UniProt P51610)
inactive: [1] 0.01 | [2] -0.022 | [3] 0.011 | [4] -0.025 | [5] -0.083 | [6] 0.153 | [7] -0.004 | [8] -0.017 | [9] -0.057 | [10] 0.141

H1-3 (UniProt P16402)
inactive: [1] -0.049 | [2] 0.042 | [3] 0.103 | [4] 0.16 | [5] 0.017 | [6] -0.062 | [7] 0.074 | [8] 0.317 | [9] 0.046 | [10] 0.669

HDAC4 (UniProt P56524)
inactive: [1] 0.042 | [2] 0.023 | [3] -0.123 | [4] 0.112 | [5] -0.011 | [6] -0.043 | [7] -0.066 | [8] -0.041 | [9] 0.064 | [10] -0.036

HBS1L isoform 2 (UniProt Q9Y450)
inactive: [1] -0.212 | [2] 0.011 | [3] -0.21 | [4] -0.023 | [5] -0.019 | [6] -0.099 | [7] -0.028 | [8] -0.008 | [9] 0.14 | [10] 0.028
